No constants are given. Whether binding was seen depends on the method and setting. In cells and extracts the contact can be indirect.
B1: LRRC6, endogenous in mouse tracheal epithelial cells (protein, UniProt O88978 1-473)
chain: MGRITEDLIRRNAEHNDCVIFSLEELSLHQQEIERLEHIDKWCRDLKILYLQNNLIGKIENVSKLKKLEYLNLALNNIERIENLEGCEWLTKLDLTVNFIGELSSVKTLTHNIHLKELFLMGNPCADFDGYRQFVVVTLQQLKWLDGKEIERSERIQALQNYTSVEQQIREQEKAYCLRRAKEKEEAQRKLEEENESEDKKKSSTGFDGHWYTDIHTACPSATENQDYPQVPETQEEQHNTKESDDIEDDLAFWNKPSLFTPESRLETLRHMEKQRKAQDKLSEKKKKAKPPRTLITEDGKVLNVNEAKLDFSLKDDEKHNQIILDLAVYRYMDTSLIEVDVQPTYVRVMVKGKPFQLALSTEVQPDRSSAKRSQTTGHLLICMPKVGEMITGGQRTPTSVKTTSTSSREQTNPRKKQIERLEVDPSKHSCPDVSTIVQEKRHRPKRMESQPRDEPSEEDPDFEDNPEVPPLI
B2: DNAI1, endogenous in mouse tracheal epithelial cells (protein, UniProt Q8C0M8 1-701)
chain: MPSKQIRKQSISVTRGARRRDEDSGTDVGEGTDEWSQSKATVRPPDQLELTDAELKEEFTRILTANNPHAPQNIVRYSFKEGTYKLIGFVNQMAVHFSQVGNLIPKDSDEGRRQHYRDEMVAGSQESIKVVTSEAENLEEEEEPKEGEGEAEAEAEAGSQTDIPAAAETTEKVIEEELMAPVQPKERKLTNQFNFSERASQTFNNPLRDRECQMEPPPRTNFSATANQWEIYDAYVDELEKQEKTKEKEKAKTPVAKKTEKMAMRKLTSMESQSDDITKVTQAAKIVERMVNQNTYDDVAQDFKYYEDTADEYRDQEGTLLPLWKFQNDKAKRLAVTALCWNPKYKDLFAVGHGSYDFMKQSRGMLLLYSMKNPSFPEYMFSSESGIMCLDVHVDHPYLVVVGYYDGNVAIYNLKKPHSQPCFRSTSKSGKHTDPVWQVKWQKDDMDHNLNFFSVSSDGRIVSWTLVKSELVHIDIIKLKTEGSTTEIPEGLQLHTVGCGTAFDFHKEIDYMFLVGTEEGKIYKCSKSYSSQFLDTYDAHNMAVDAVLWNPYHTKVFMSCSSDWTVKIWDHTIKTPMFIYDLNSAVGDVAWAPYSSTVFAAVTTDGKAHVFDLAVNKYEAICNQPVVAKKKNKITHVQFNPIHPIIIVGDDRGHIICLKLSPNLRKMPKEKKGQEVQKGPAVEIAKLDKLLNLVREVKTKT
B3: IQUB, endogenous in mouse tracheal epithelial cells (protein, UniProt Q8CDK3 1-788)
chain: MSDPEEERVADSTAHYEEAGKVISIPRPSDEAEGSDVMPEQDDEVQELTTESEENVERHSEFSLSTPKSDDSKPREEVTSLGSASGSQDQDYRLLDYQKGEDDELLFLHKIKAIKETLQTSVRESIATVKIVLIPAGQEIIMPFRVDAPFRFLKEHFAHLLHIPHYVLQITHEGIIVGNNESLIQYGIKPQEIVQVEVFSTLPDQYPVRRIEGLSEGSQIITVTIQTSIDRYEEVAVEIIKSDFHKPFLGGFRHKITGLEYHNAGTQTVPRKIPEKDNLFCRDTQTVFQKKKLQQTTNTTSTQMTKIGVYVSNMTDKLLKPGNYFSAAEYHARRLHAVIVIQTSYRRWHAKRYVESLRKQKKLRLEWEEEQELLKIQEKEEWIRMDYYRRHNPKTTEDFELLYNALELWRQEEVEQICHYSSEAERKAALCELLEKETQMIASIGRHRSAARMERQDAAIQAFLDKCSAPNVWRRGDGKTIEMDTQFTIRARELQSIYKCILLKDLSQDERLDILLTLKHTVKEHECKLTQEILELIDREVDLMMRGVKPHNLEGLRKRITTLFIHYIKTPLFNPEVAKYLKVPQDPLKFYDTIYFCHSCQNYLPSVEFSVSPTSHRVYRCRHCINLENETQRRESFLKYKCLLQRLYYSEADYGDNSQIAFLMQLQDIKYLTENIWASQSALSAWDDLNDLVMVRWDKHVEWSPWNCILLTKDESTAHLRLPSIEKGYGHHFVHKIKHKHILAKNYFSQIPTLASLILNDDEVEDIRSKHSTKSPPKIIITRRIQPH

molecular target: GST-MYND, purified MYND domain of ZMYND10; experiment: pull-down; purified GST-ZMYND10 (full length) or GST-MYND as bait; lysates from mTECs; immunoblot; only the target purified

binding, no binding:
B1
B2
B3

Source: PMC5895051
